Measured data: PubChem BioAssay AID1508588 (Peter MacCallum Cancer Centre, 2020)

Test: 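Which gene losses make BRAF-mutant melanoma cells more responsive to vemurafenib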 (primary screen)
Cell system: human WM266.4 melanoma cells (BRAF V600 mutant)
Reagents: siRNA pool against human genes, 40 nM
Timing: 96 h from transfection to read-out
Treatment: vemurafenib 300 nM (about IC25), added 48 h after transfection, for 48 h; comparison arm got DMSO vehicle only
Read-out: 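Cell gain (DAPI nuclei at end minus before drug, mean of two replicates) and medium lactate by absorbance per cell, both as ratio to non-targeting siRNA, also grouped into fold-change classes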
Scale: cell gain with vemurafenib: higher = more cell gain than with non-targeting siRNA; lactate per cell with vemurafenib: higher = more lactate made per cell
Hit rule: 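Enhancement is called by pairing each knock-down's vehicle-arm and drug-arm fold-change classes for viability or glycolysis; which class combinations qualify is not given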
Calls: active = enhances vemurafenib effect; inactive = no enhancement seen
The deposit covers about 18,000 reagents; shown is a random part of them. 790 of all reagents (4.4%) were called active. 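Calls rest on a combination of fold-change classes in drug and vehicle arms, not all shown here.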 No sequences are given here.

PQBP1 showed cell gain with vemurafenib 0.57; lactate per cell with vemurafenib 0.66; inactive.
Knock-down of ZNF180 resulted in: cell gain with vemurafenib 0.72; lactate per cell with vemurafenib 0.52; inactive.
HCAR1 scored cell gain with vemurafenib 1.03; lactate per cell with vemurafenib 1.05; inactive.
SHISAL2A scored cell gain with vemurafenib 0.26; lactate per cell with vemurafenib 1.52; inactive.
After knock-down of TM6SF1 the results were cell gain with vemurafenib 0.22; lactate per cell with vemurafenib 0.97; inactive.
Depletion of LINC01588 resulted in: cell gain with vemurafenib 0.2; lactate per cell with vemurafenib 0.22; inactive.
Depletion of HPR resulted in: cell gain with vemurafenib 0.52; lactate per cell with vemurafenib 0.92; inactive.
After knock-down of L2HGDH, the record shows cell gain with vemurafenib 0.46; lactate per cell with vemurafenib 0.14; active.
After knock-down of SPAG5, the screen gave cell gain with vemurafenib 0.46; lactate per cell with vemurafenib 0.86; inactive.
For PTGR3 the deposit lists cell gain with vemurafenib 1.09; lactate per cell with vemurafenib 1.37; inactive.
After knock-down of FOXD2, the record shows cell gain with vemurafenib 0.65; lactate per cell with vemurafenib 1.03; inactive.
After knock-down of ME2, the record shows cell gain with vemurafenib 0.83; lactate per cell with vemurafenib 0.52; inactive.
Against SELENOK, the entry reads cell gain with vemurafenib 0.49; lactate per cell with vemurafenib 1.47; inactive.
MAGT1 scored cell gain with vemurafenib 0.69; lactate per cell with vemurafenib 1.16; inactive.
After knock-down of ANKRD46, the screen gave cell gain with vemurafenib 0.69; lactate per cell with vemurafenib 0.47; active.
With knock-down of NR4A1 the results were cell gain with vemurafenib 0.63; lactate per cell with vemurafenib 1.02; inactive.
Silencing of KIAA1755 gave: cell gain with vemurafenib 0.37; lactate per cell with vemurafenib 1.84; inactive.
RAX2 showed cell gain with vemurafenib -0.06; lactate per cell with vemurafenib 2.39; inactive.
Depletion of TMC1 came out at: cell gain with vemurafenib 0.73; lactate per cell with vemurafenib 2.08; inactive.
HSPA13 scored cell gain with vemurafenib 0.39; lactate per cell with vemurafenib 1.8; inactive.
After knock-down of SLC24A3, the record shows cell gain with vemurafenib 0.43; lactate per cell with vemurafenib 0.57; inactive.
Depletion of MYO9A gave: cell gain with vemurafenib 0.22; lactate per cell with vemurafenib 1.05; inactive.
After knock-down of CYB5R3, the screen gave cell gain with vemurafenib 0.66; lactate per cell with vemurafenib 0.26; inactive.
Silencing of STK3 came out at: cell gain with vemurafenib 0.76; lactate per cell with vemurafenib 0.78; inactive.
Against CASP9, the entry reads cell gain with vemurafenib 0.44; lactate per cell with vemurafenib 1.08; inactive.
Against ELOVL3 the deposit lists cell gain with vemurafenib 0.92; lactate per cell with vemurafenib 0.61; inactive.
After knock-down of SNPH, the screen gave cell gain with vemurafenib 0.41; lactate per cell with vemurafenib 0.74; inactive.
After knock-down of BBC3, the screen gave cell gain with vemurafenib 0.39; lactate per cell with vemurafenib 1.45; inactive.
After knock-down of PRRT2, the record shows cell gain with vemurafenib 1.38; lactate per cell with vemurafenib 0.93; inactive.
With knock-down of TMC3, the screen gave cell gain with vemurafenib 0.89; lactate per cell with vemurafenib 1.38; inactive.
CLLU1 showed cell gain with vemurafenib 0.63; lactate per cell with vemurafenib 0.66; inactive.
Knock-down of MAP2K6 gave: cell gain with vemurafenib 1.15; lactate per cell with vemurafenib 0.76; inactive.
Silencing of CAMSAP2 gave: cell gain with vemurafenib 0.11; lactate per cell with vemurafenib 1.09; inactive.
Against ZNF404 the deposit lists cell gain with vemurafenib 0.79; lactate per cell with vemurafenib 1; inactive.
ZNF791 showed cell gain with vemurafenib 0.58; lactate per cell with vemurafenib 0.64; inactive.
CTDSPL gave cell gain with vemurafenib 0.73; lactate per cell with vemurafenib 1.6; inactive.
Against ANO5 the deposit lists cell gain with vemurafenib 0.86; lactate per cell with vemurafenib 0.68; inactive.
ALOX12 showed cell gain with vemurafenib 1.16; lactate per cell with vemurafenib 1.02; inactive.
For CST11, the entry reads cell gain with vemurafenib 0.91; lactate per cell with vemurafenib 0.82; inactive.
Against LRRC75B, the values are cell gain with vemurafenib 0.77; lactate per cell with vemurafenib 1.12; inactive.

Ordered by “cell gain with vemurafenib” (lowest first): 3 of the entries above
SNPH: cell gain with vemurafenib = 0.41; lactate per cell with vemurafenib = 0.74; Outcome = inactive
CASP9: cell gain with vemurafenib = 0.44; lactate per cell with vemurafenib = 1.08; Outcome = inactive
ELOVL3: cell gain with vemurafenib = 0.92; lactate per cell with vemurafenib = 0.61; Outcome = inactive
